Experimental data: publication doi:10.1101/189324

Sequences of proteins named here, by UniProt entry; tags and fusion partners are left off. Residues count along the entry.
UniProt P20029, residues 20-655: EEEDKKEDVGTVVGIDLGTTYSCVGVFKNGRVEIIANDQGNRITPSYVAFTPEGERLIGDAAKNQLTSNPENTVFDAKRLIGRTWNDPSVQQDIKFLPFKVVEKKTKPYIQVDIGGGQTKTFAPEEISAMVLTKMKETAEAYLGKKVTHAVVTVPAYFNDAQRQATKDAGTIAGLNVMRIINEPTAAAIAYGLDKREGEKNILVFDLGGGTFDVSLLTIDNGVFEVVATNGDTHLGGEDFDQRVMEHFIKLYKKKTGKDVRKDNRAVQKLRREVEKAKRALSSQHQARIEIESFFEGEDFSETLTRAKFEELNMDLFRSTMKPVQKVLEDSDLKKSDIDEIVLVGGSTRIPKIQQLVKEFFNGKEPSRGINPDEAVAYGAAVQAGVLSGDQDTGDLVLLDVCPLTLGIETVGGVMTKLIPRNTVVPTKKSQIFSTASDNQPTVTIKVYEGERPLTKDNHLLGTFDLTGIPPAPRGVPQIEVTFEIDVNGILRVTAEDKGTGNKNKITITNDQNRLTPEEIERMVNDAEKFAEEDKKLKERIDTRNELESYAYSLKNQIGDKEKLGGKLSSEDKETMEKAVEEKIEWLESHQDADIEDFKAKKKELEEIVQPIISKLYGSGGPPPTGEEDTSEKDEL
UniProt P08113, residues 22-802: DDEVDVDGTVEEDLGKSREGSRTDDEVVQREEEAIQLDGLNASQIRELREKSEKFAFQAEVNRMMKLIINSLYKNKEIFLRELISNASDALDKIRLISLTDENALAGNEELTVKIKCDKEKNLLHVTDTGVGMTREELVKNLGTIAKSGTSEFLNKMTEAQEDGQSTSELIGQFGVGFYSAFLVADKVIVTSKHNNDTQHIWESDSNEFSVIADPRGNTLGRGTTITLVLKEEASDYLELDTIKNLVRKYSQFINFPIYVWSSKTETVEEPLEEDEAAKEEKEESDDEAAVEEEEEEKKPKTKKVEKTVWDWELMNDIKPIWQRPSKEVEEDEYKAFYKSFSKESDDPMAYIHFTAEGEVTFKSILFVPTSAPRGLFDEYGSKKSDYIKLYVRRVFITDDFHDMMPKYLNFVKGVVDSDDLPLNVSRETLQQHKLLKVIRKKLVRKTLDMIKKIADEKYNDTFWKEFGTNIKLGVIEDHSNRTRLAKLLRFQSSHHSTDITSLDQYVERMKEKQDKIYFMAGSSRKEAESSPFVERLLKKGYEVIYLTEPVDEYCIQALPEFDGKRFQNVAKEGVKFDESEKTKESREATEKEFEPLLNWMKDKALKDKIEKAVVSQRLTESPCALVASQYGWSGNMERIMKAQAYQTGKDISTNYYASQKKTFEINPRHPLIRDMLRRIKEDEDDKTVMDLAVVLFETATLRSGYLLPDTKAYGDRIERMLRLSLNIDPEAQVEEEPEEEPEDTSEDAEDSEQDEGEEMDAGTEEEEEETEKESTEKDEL

These substances were tested against T1, Recombinant His-tagged secretagogin (SCGN) (UniProt Q91WD9) (assay: affinity purification with mass spectrometry).
T1 sequence: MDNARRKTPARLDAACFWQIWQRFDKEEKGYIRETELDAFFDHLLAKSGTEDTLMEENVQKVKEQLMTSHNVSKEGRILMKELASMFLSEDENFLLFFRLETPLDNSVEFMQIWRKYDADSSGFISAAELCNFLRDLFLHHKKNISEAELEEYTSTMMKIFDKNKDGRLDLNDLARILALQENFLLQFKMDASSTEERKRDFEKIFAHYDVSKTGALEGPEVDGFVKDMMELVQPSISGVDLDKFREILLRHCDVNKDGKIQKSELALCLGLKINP

binding, binds:
BiP (from UniProt P20029 20-655)
GRP94 (from UniProt P08113 22-802)
PDI (mouse (endogenous in MIN6))

Results are given in words; binding and its absence hold for the method and conditions named. In cells and extracts the contact can be indirect. Here binding means that the protein was enriched with, or labelled near, the bait; the list need not be complete. Sequences can lack the tags named with a protein.
